PubChem BioAssay AID504764 | Drosophila RNAi Screening Center | 2011
In all, the deposit lists about 22,000 reagents; below is an unselected part of those with a known target gene and a result. Of all reagents, 403 (1.9%) got an active call. 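Unnormalised raw counts per well; ratio z-scores behind the hit calls and whether each hit raises or lowers signal are not deposited.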 The numbers tell different reagents against one gene apart. A plus sign joins genes that one reagent is predicted to hit. Not given: the amount of reagent.

- Purpose: 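Genes whose knock-down alters Notch-dependent transcription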 (primary screen)
- Cell system: Drosophila Kc167 cells
- Reagent: long dsRNA against Drosophila genes
- Timing: about 5 days (4 days dsRNA, then 24 h after transfection)
- Conditions: transfection of constitutively active membrane-tethered Notch lacking the extracellular domain, read 24 h later
- Detection: 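Light from a Notch-responsive E(spl)m3 luciferase reporter under active Notch, with control-promoter and no-Notch reporter wells to normalise; raw counts from paired wells a and b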
- Scale: induced reporter light, run 1, well a and induced reporter light, run 1, well b: higher = more light from the Notch target reporter with active Notch; control promoter light, run 1, well a and control promoter light, run 1, well b: higher = more light from the viral control promoter (cell number, transfection, viability); uninduced reporter light, run 1, well a: higher = more light from the Notch target reporter without active Notch
- Call rule: 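Wells with low control signal or poorly matching duplicates excluded; duplicates averaged; per source plate, z beyond ±2 for induced/control log2 ratio or beyond ±1.8 for induced/uninduced marks a hit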
- Meaning of the calls: active = modifier hit (raised or lowered Notch signal); inactive = not a hit

The first 7 records as a preview:
gene | reagent | induced reporter light, run 1, well a | induced reporter light, run 1, well b | control promoter light, run 1, well a | control promoter light, run 1, well b | uninduced reporter light, run 1, well a | Outcome
CG34434 (GeneID 31472) | 1 | 1.64e5 | 1.88e5 | 3.47e5 | 3.06e5 | 15025 | inactive
RpL28 + snoRNA:Or-CD12 | 1 | 27365 | 24990 | 47955 | 48690 | 1920 | inactive
CG12112 (GeneID 31794) | 1 | 2.50e5 | 2.26e5 | 2.54e5 | 2.54e5 | 15160 | inactive
Myc (GeneID 31310) | 1 | 13288 | 13975 | 11640 | 12710 | 2440 | inactive
CG13712 (GeneID 38574) | 1 | 1.12e5 | 93650 | 1.39e5 | 1.10e5 | 5582 | inactive
swa (GeneID 31580) | 1 | 2.18e5 | 1.79e5 | 2.32e5 | 2.27e5 | 15675 | inactive
pont (GeneID 53439) | 1 | 77785 | 89410 | 87915 | 69965 | 3605 | inactive

The list itself, repeating the preview:
gene | reagent | induced reporter light, run 1, well a | induced reporter light, run 1, well b | control promoter light, run 1, well a | control promoter light, run 1, well b | uninduced reporter light, run 1, well a | Outcome
CG34434 (GeneID 31472) | 1 | 1.64e5 | 1.88e5 | 3.47e5 | 3.06e5 | 15025 | inactive
RpL28 + snoRNA:Or-CD12 | 1 | 27365 | 24990 | 47955 | 48690 | 1920 | inactive
CG12112 (GeneID 31794) | 1 | 2.50e5 | 2.26e5 | 2.54e5 | 2.54e5 | 15160 | inactive
Myc (GeneID 31310) | 1 | 13288 | 13975 | 11640 | 12710 | 2440 | inactive
CG13712 (GeneID 38574) | 1 | 1.12e5 | 93650 | 1.39e5 | 1.10e5 | 5582 | inactive
swa (GeneID 31580) | 1 | 2.18e5 | 1.79e5 | 2.32e5 | 2.27e5 | 15675 | inactive
pont (GeneID 53439) | 1 | 77785 | 89410 | 87915 | 69965 | 3605 | inactive
CG8243 (GeneID 35890) | 1 | 1.70e5 | 1.51e5 | 2.14e5 | 2.25e5 | 15115 | inactive
mtrm (GeneID 38958) | 1 | 10365 | 9992 | 10470 | 3038 | 3250 | inactive
Rab5 (GeneID 33418) | 1 | 1.03e5 | 1.16e5 | 1.19e5 | 1.22e5 | 10925 | inactive
hpRNA:CR32207 (GeneID 10178801) | 1 | 2.01e5 | 1.91e5 | 2.92e5 | 2.25e5 | 17700 | inactive
GluRIIA (GeneID 33788) | 1 | 1.57e5 | 1.24e5 | 1.71e5 | 1.80e5 | 9090 | inactive
CG8372 (GeneID 34121) | 1 | 1.97e5 | 2.00e5 | 1.86e5 | 2.08e5 | 15005 | inactive
NimC2 (GeneID 34818) | 1 | 1.27e5 | 1.50e5 | 1.51e5 | 2.08e5 | 12130 | inactive
TkR99D (GeneID 43551) | 1 | 1.41e5 | 1.16e5 | 1.75e5 | 1.53e5 | 10985 | inactive
Jon65Aii (GeneID 38684) | 1 | 1.73e5 | 1.56e5 | 1.63e5 | 1.53e5 | 3835 | active
CG11251 (GeneID 39490) | 1 | 1.98e5 | 2.05e5 | 2.61e5 | 2.53e5 | 16210 | inactive
CG17754 (GeneID 31873) | 1 | 2.09e5 | 1.94e5 | 2.35e5 | 2.54e5 | 14175 | inactive
CG42507 + Trl | 1 | 1.60e5 | 1.25e5 | 1.62e5 | 1.89e5 | 13265 | inactive
CG42507 + Trl | 2 | 2735 | 4480 | 4015 | 3315 | 2495 | inactive
p-cup (GeneID 32727) | 1 | 46340 | 40830 | 42775 | 35880 | 7170 | inactive
bocks (GeneID 41162) | 1 | 92115 | 1.16e5 | 84485 | 66120 | 7460 | inactive
Crtp (GeneID 44276) | 1 | 1.35e5 | 1.29e5 | 1.14e5 | 1.42e5 | 10580 | inactive
CG9010 (GeneID 36904) | 1 | 89060 | 93185 | 2.04e5 | 1.63e5 | 8700 | inactive
Hsepi (GeneID 35569) | 1 | 2.07e5 | 1.73e5 | 1.69e5 | 1.78e5 | 13650 | inactive
CG17991 (GeneID 43279) | 1 | 79235 | 87095 | 1.12e5 | 1.07e5 | 8665 | inactive
Cyp4d14 (GeneID 45706) | 1 | 94175 | 95140 | 1.67e5 | 1.64e5 | 5795 | inactive
CG6553 (GeneID 36537) | 1 | 1.11e5 | 1.32e5 | 1.88e5 | 1.83e5 | 9440 | inactive
CG1791 (GeneID 31927) | 1 | 1.72e5 | 1.67e5 | 2.23e5 | 2.17e5 | 13905 | inactive
eEF1alpha1 (GeneID 36271) | 1 | 14305 | 12925 | 24340 | 19025 | 1570 | inactive
Plp (GeneID 3772382) | 1 | 2.32e5 | 1.66e5 | 3.57e5 | 2.28e5 | 11785 | inactive
Plp (GeneID 3772382) | 2 | 1.65e5 | 2.09e5 | 2.60e5 | 1.93e5 | 7620 | inactive
Plp (GeneID 3772382) | 3 | 1.13e5 | 1.08e5 | 55635 | 87915 | 10690 | inactive
Hsf (GeneID 37068) | 1 | 96945 | 1.04e5 | 1.63e5 | 2.14e5 | 7780 | inactive
CheB93a (GeneID 42540) | 1 | 2.02e5 | 1.87e5 | 1.78e5 | 1.84e5 | 12660 | inactive
CG10321 (GeneID 37464) | 1 | 1.78e5 | 1.89e5 | 3.28e5 | 2.97e5 | 13690 | inactive
CG6724 (GeneID 34488) | 1 | 99520 | 1.16e5 | 68650 | 89685 | 15140 | inactive
2mit (GeneID 41616) | 1 | 2.45e5 | 2.64e5 | 1.74e5 | 2.52e5 | 21060 | inactive
2mit (GeneID 41616) | 2 | 3.04e5 | 2.90e5 | 1.96e5 | 2.35e5 | 22425 | inactive
CG15484 (GeneID 34682) | 1 | 1.66e5 | 1.84e5 | 1.69e5 | 1.78e5 | 14145 | inactive
CG15484 (GeneID 34682) | 2 | – | – | – | – | – | inactive
tll (GeneID 43656) | 1 | 1.49e5 | 1.72e5 | 2.17e5 | 1.81e5 | 12570 | inactive
CG32264 (GeneID 38438) | 1 | 7545 | 7680 | 9165 | 10110 | 5055 | inactive
CG32264 (GeneID 38438) | 2 | 1.26e5 | 1.50e5 | 1.22e5 | 1.33e5 | 4940 | inactive
CG32264 (GeneID 38438) | 3 | 1.55e5 | 1.55e5 | 1.03e5 | 41655 | 12350 | inactive
CG32264 (GeneID 38438) | 4 | 1.22e5 | 1.59e5 | 1.83e5 | 1.64e5 | 6030 | inactive
CG32264 (GeneID 38438) | 5 | 13830 | 15100 | 21945 | 21030 | 3350 | inactive
Nup358 (GeneID 43041) | 1 | 14480 | 16990 | 18890 | 19482 | 1065 | active
Dera (GeneID 36358) | 1 | 1.37e5 | 1.58e5 | 1.54e5 | 1.59e5 | 12075 | inactive
Dera (GeneID 36358) | 2 | – | – | – | – | – | inactive
Pyroxd1 (GeneID 35296) | 1 | 69780 | 47015 | 55075 | 65685 | 3175 | inactive
CG6443 (GeneID 34477) | 1 | 2.15e5 | 2.66e5 | 2.12e5 | 1.74e5 | 17365 | inactive
Amyrel (GeneID 36863) | 1 | 1.05e5 | 1.07e5 | 1.89e5 | 1.81e5 | 8310 | inactive
CG17732 (GeneID 40182) | 1 | 1.38e5 | 1.43e5 | 93110 | 1.14e5 | 6930 | inactive
Rtnl1 (GeneID 33721) | 1 | 80050 | 92535 | 1.41e5 | 1.27e5 | 8660 | inactive
Rtnl1 (GeneID 33721) | 2 | 1.46e5 | 1.52e5 | 1.83e5 | 1.68e5 | 16290 | inactive
Rtnl1 (GeneID 33721) | 3 | 1.70e5 | 1.70e5 | 1.63e5 | 1.89e5 | 18600 | inactive
dimm (GeneID 35404) | 1 | 57665 | 34745 | 46895 | 45675 | 4210 | inactive
CG32277 (GeneID 38393) | 1 | 1.08e5 | 1.04e5 | 1.74e5 | 1.40e5 | 7350 | inactive
CG42694 (GeneID 10178792) | 1 | 76720 | 72605 | 88730 | 86305 | 8945 | inactive
CG5084 (GeneID 37051) | 1 | 25130 | 34035 | 33720 | 38955 | 4438 | inactive
CG1663 (GeneID 36012) | 1 | 1.49e5 | 1.56e5 | 1.60e5 | 1.52e5 | 13545 | inactive
CG32121 (GeneID 317867) | 1 | 2.05e5 | 1.66e5 | 2.44e5 | 2.59e5 | 20715 | inactive
DIP-gamma (GeneID 43417) | 1 | 1.94e5 | 2.10e5 | 2.76e5 | 2.62e5 | 14455 | inactive
